Chains of the proteins cited; added tags and fusions are not shown. Chains listed by the source or under a name are the forms on record and can include a tag or linker.
myelin basic protein 21.5 kDa isoform (exon 2 containing) (mouse), one chain, as listed by the source, stated change not applied: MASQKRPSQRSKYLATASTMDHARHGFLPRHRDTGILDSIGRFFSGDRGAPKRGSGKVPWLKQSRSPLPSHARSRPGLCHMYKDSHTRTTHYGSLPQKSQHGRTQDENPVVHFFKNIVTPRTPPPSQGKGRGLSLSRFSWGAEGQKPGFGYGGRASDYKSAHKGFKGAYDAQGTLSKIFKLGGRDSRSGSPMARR
myelin basic protein 18.5 kDa isoform (mouse), one chain, as listed by the source: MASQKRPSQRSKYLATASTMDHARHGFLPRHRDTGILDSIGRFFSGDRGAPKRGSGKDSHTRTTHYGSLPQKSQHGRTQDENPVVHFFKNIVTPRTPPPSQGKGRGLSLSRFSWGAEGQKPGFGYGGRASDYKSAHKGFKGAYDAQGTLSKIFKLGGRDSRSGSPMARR

According to article PMC3384608:

Experiments:
Experiment in all cases: southwestern blot
Conditions in all cases: 1 mM Mg2+; Southwestern: 5 uM folded fluorescent aptamer in PBS + 1 mM MgCl2, 14 h on PVDF blocked with 1% BSA, 10% milk, 2 mg/mL salmon testis DNA; washed in TBST then 0.5x TBE; protein in an extract; label: 5'-fluorescein; single-stranded DNA
[1] = system: proteolipid protein (PLP), 12.5 kDa apparent band (mouse)
[2] = system: myelin basic protein 21.5 kDa isoform (exon 2 containing) (mouse)
[3] = system: myelin basic protein 17 kDa isoform (exon 2 containing) (mouse)
[4] = biological target: T1, myelin oligodendrocyte glycoprotein (MOG), 23.8 kDa band (mouse) (UniProt Q61885)
T1 sequence (looked up, limits assumed): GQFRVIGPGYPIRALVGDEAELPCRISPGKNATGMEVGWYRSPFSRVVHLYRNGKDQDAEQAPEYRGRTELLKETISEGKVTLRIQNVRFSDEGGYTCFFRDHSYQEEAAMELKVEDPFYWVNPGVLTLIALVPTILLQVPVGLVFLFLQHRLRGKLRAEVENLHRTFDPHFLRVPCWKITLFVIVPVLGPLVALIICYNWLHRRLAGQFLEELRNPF

[5] = system: myelin basic protein 18.5 kDa isoform (mouse)

Measured: binding result

TTTTTTTTTTTTTTTTTTTTTTTTTTTTTTTTTTTTTTTT [control 3202 (LJM-3202, dT40)]
no binding: all assays above

Where cells or extracts were used, other partners may take part. Negatives hold for the conditions tested. At least one verdict was read from the data and is not stated in words by the source. For some assays here: Tags and fusion partners may be left off the protein sequences shown. For some assays here: Construct, isoform or probe ends are uncertain for at least one entry.
